# Tested on: 5D2 antibody
smiles,measurement,setting,value
Nc1nc(=O)n([C@@H]2CS[C@H](CO)O2)cc1F [FTC],detection of FTC in urine by the 5D2-based competitive assay,urine,detected
same,effective limit of detection,"urine diluted 1:4 in 0.1M Tris-HCl pH 8.0 plus 1% BSA, spiked FTC",~5 µg/mL

# From patent US11186651B2, “Monoclonal antibody for the detection of the antiretroviral drug emtricitabine (FTC, 2′,3′-dideoxy-5-fluoro-3′-thiacytidine)” (THE UNITED STATES OF AMERICA, AS REPRESENTED BY THE …, priority 2018, dated 2021)
